# About 6,000 (1.7%) of roughly 350,000 compounds were called active. The shares of active, inactive and inconclusive entries below differ from those in the screen. Cut-off read from the data, not from the text of the source: active = CPE inhibition above about 20% (passing the limit was not always enough); inconclusive = no clear call, values can overlap the other calls; tested in BHK-21 cells.
# Assay: protection of cells from dengue 2 killing – plate reader, single concentration, primary screen (AID 651640);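 note: 0% = median of neutral control wells and 100% = median of positive control wells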
# Details: DENV2-infected cells, cytopathic effect rescue, at 9.99 µM, active compounds read high
row,Structure (SMILES),CPE inhibition
1,Cc1coc2cc3oc(=O)c(CCC(=O)N[C@@H](CCCNC(N)=O)C(=O)O)c(C)c3cc12,inconclusive: 24.3%
2,COc1ccc(C=O)cc1COc1ccc([N+](=O)[O-])c(C)c1,inactive: -2.75%
3,O=C(N[C@@H]1c2ccccc2CC[C@@H]1OCc1ccccc1)c1ccc(C(F)(F)F)cc1,active: 69.2%
4,COc1ccc2c3c(n(C)c2c1)[C@@H](CO)NCC31CCN(S(=O)(=O)c2cccc(C)c2)CC1,active: 38.6%
5,Cc1csc(SCC(=O)Nc2ccccc2[N+](=O)[O-])n1,inactive: -0.659%
6,C[C@H]1CN([C@@H](C)CO)C(=O)c2cc(C3=CCCCC3)cnc2O[C@@H]1CN(C)C(=O)c1ccccc1,inactive: -12%
7,COc1cc(CNC(=O)c2cc(-c3ccc(OC)cc3C)n[nH]2)cc(OC)c1,inconclusive: 75.3%
8,O=C(c1cc2ccccc2o1)N1CCN(Cc2ccccc2)CC1,inconclusive: 20.2%
9,COc1ccc(C(=O)NCCN2CCOCC2)cc1S(=O)(=O)Nc1ccc(C)cc1,inconclusive: 36.8%
10,N#C[C@@H]1[C@@H](c2ccc(C#Cc3cccnc3)cc2)[C@@H](CO)N1C(=O)C1CC1,inconclusive: 43.4%
11,Cc1cccc(NC(=O)c2ccc(Cl)c(S(=O)(=O)N3CCCCCC3)c2)n1,inconclusive: 56.4%
12,COc1ccc(CCNC(=O)C2CCC(=O)N(CC3CCCCC3)C2)cc1 (stereo unspecified),inconclusive: 21.6%
13,COc1ccc(S(=O)(=O)Nc2ccc3c(c2)C(=O)N([C@@H](C)CO)C[C@H](C)[C@H](CN(C)C(=O)Nc2cccc4ccccc24)OCCCC[C@@H](C)O3)cc1,inactive: -9.61%
14,CCOC(=O)CCC(NC(=O)c1ccc(Nc2nc3ccccc3nc2C(=O)OCC)cc1)C(=O)OCC (stereo unspecified),inconclusive: 24.2%
15,Cc1c(C2Nc3ccccc3C2C)[nH]c2ccccc12 (stereo unspecified),inconclusive: 21.7%
16,CCC(=O)c1ccc(OCC(=O)OCC(=O)N(CCC#N)c2ccc3c(c2)OCCO3)cc1,inconclusive: 33.9%
17,CN(C)c1cccc2c1c(NC(=O)Nc1ccc(Cl)cc1Cl)nn2C,inactive: 3.44%
18,CCNC(=O)Nc1ccc2c(c1)C(=O)N(C)[C@H]1CC[C@H](CC(=O)NCCOC)O[C@H]1CO2,inconclusive: 59.5%
19,CC(Sc1nc2ccccc2c(=O)n1CC1CCCO1)C(=O)NC(C)c1ccccc1 (stereo unspecified),inconclusive: 23.2%
20,Cc1ccccc1-c1ccc(C2[C@H]3CNC[C@@H]2N3Cc2cncnc2)cc1 (stereo partly specified),inactive: -0.341%
21,CC(NNC(=S)N1CCCCCC1)c1ccc2ccccc2n1 (stereo unspecified),inconclusive: 26.5%
22,CCOC(=O)CN1CC23C=CC(O2)C(C(=O)NCCc2ccccc2)C3C1=O (stereo unspecified),active: 21.8%
23,C/C=C/c1ccc2c(c1)[C@@H]1[C@@H](CCN1C(=O)Cc1cccnc1)[C@@H](CO)N2C,inconclusive: 47.2%
24,CCOC(=O)c1c(S(=O)(=O)N2CCN(c3ccc(C(C)=O)cc3)CC2)c(C)n(C)c1C,inconclusive: 32.2%
25,COc1ccc(NC(=O)Nc2ccc3c(c2)C(=O)N([C@@H](C)CO)C[C@H](C)[C@@H](CN(C)Cc2ccc(-c4ccccc4)cc2)O3)cc1,inactive: 6.97%
26,Cc1ccc(NC(=O)c2ccc(NC3=NC4CS(=O)(=O)CC4S3)cc2)cc1 (stereo unspecified),inconclusive: 39.4%

row,Structure (SMILES),CPE inhibition
1,Cn1nc(-c2ccccc2)c(/C=N/O)c1Cl,inactive: -3.36%
2,COc1ccc(F)cc1C(=O)COC(=O)c1n[nH]c(=O)c2ccccc12,inconclusive: 24.2%
3,COc1ccc(Br)cc1/C=C/c1ccc2cccc(O)c2n1,inactive: -8.84%
4,N#C/C(=C\c1cccs1)C(=O)c1ccccc1Cl,active: 77.9%
5,Cc1cc(S(=O)(=O)Nc2c(C)nc3nc[nH]n3c2=O)ccc1F,inconclusive: 60.9%
6,CCOC(=O)C1(C)CCN1C(=O)c1ccco1 (stereo unspecified),inconclusive: 49.9%
7,O=C(O)c1cccc(NS(=O)(=O)c2cc(S(=O)(=O)c3ccc(Cl)cc3)ccc2Cl)c1,inconclusive: 32.7%
8,Cc1cc(-c2ccccc2)nc2oc3c(c12)NC(=O)CN(c1ccccc1)C3=O,inconclusive: 22.2%
9,COCC(=O)N1[C@H](CO)[C@H]2c3ccccc3N(C(=O)c3cccnc3)C[C@H]21,active: 58.8%
10,c1nc(NCc2ccc3c(c2)OCO3)c2cc(-c3ccoc3)ccc2n1,inconclusive: 41.6%
11,COc1ccc(C(=O)c2c(-c3ccsc3)oc3ccc(-c4ccc(OC)cc4)cc23)cc1,inconclusive: 26.6%
12,O=C(N[C@@H]1CC[C@@H](CCNS(=O)(=O)c2ccc(F)cc2)O[C@@H]1CO)c1cnccn1,inactive: 7.9%
13,O=C(C[C@@H]1C[C@@H]2c3cc(NC(=O)Nc4ccc(C(F)(F)F)cc4)ccc3O[C@@H]2[C@H](CO)O1)NCc1cc(F)ccc1F,inactive: 0.975%
14,CO[C@H]1CC[C@H]2CCN(C)C(=O)[C@@H](C)[C@H](OC)CN(C)C(=O)c3cc(C#N)ccc3OC[C@@H]1O2,inactive: -2.33%
15,COc1cc(NC(=S)NCc2ccco2)c(OC)cc1Cl,inconclusive: 45.1%
16,COc1ccc(-n2c(COc3ccc(Cl)cc3Cl)n[nH]c2=S)cc1,inconclusive: 37.3%
17,COc1ccc(S(=O)(=O)Nc2ccc3c(c2)CC(=O)N([C@H](C)CO)C[C@@H](C)[C@@H](CN(C)Cc2ccc(C(F)(F)F)cc2)O3)cc1,active: 23.2%
18,C[C@@H]1CCCCO[C@@H](CN(C)C(=O)NC2CCCCC2)[C@@H](C)CN([C@@H](C)CO)C(=O)c2cc(NC(=O)C3CCCCC3)ccc2O1,inactive: -1.85%
19,CN(C)CC#Cc1cccc(-c2nc(C(=O)N3CCN(C)CC3)cc3c2[C@@H](CCO)N(S(=O)C(C)(C)C)C3)c1 (stereo partly specified),inconclusive: 27%
20,CC1CCc2sc(C(=O)NN=C3CCCC3)cc2C1 (stereo unspecified),active: 51.8%
21,Cc1ccc(S(=O)(=O)Cc2ccccc2Cl)cc1,active: 29.5%
22,COc1ccc(C(CNC(=O)c2ccco2)N2CCCC2)cc1 (stereo unspecified),inconclusive: 21.8%
23,O=C(N/N=C/c1cccc(Br)c1)c1ccc(N2CCCC2=O)cc1,inconclusive: 29.1%
24,O=C(NC12CC3CC(CC(C3)C1)C2)N1CCN(c2ncccn2)CC1,inactive: -7.82%
25,O=C(NCCc1ccccc1)c1cc(S(=O)(=O)N2CCCC2)ccc1F,inconclusive: 20.1%
26,C=CCNC(=O)[C@@H]1[C@H]2C(=O)O[C@H](c3ccccc3)[C@H](c3ccccc3)N2[C@H](c2ccc(OCCO)cc2)[C@@]12C(=O)Nc1ccc(C#CCNC(N)=O)cc12,inactive: -6.66%

row,Structure (SMILES),CPE inhibition
1,COCCn1c(=N)c(S(=O)(=O)c2ccc(F)cc2)cc2c(=O)n3ccccc3nc21,inactive: -2.39%
2,Cc1noc(C)c1COc1ccc(C(=O)OC(C)C(=O)Nc2ccc(S(=O)(=O)N3CCOCC3)cc2)cc1 (stereo unspecified),inactive: 2.65%
3,COc1ccccc1CCNC(=O)C(=O)Nc1cc2c3c(c1)CC(=O)N3CCC2,inconclusive: 55%
4,O=C(N[C@H]1CC[C@@H](CC(=O)N2CCOCC2)O[C@@H]1CO)c1ccc2c(c1)OCO2,inactive: 8.78%
5,Cc1ccc(S(=O)(=O)Nc2ccc3c(c2)C(=O)N([C@@H](C)CO)C[C@H](C)[C@H](CN(C)C(=O)C2CCCCC2)OCCCC[C@@H](C)O3)cc1,inconclusive: 23.1%
6,Cc1ccc(S(=O)(=O)N(Cc2cccc(C)c2)C(=O)N2CCN(C)CC2)cc1,inconclusive: 22.4%
7,CCCN(C)C[C@H]1OCc2cn(nn2)CCCC(=O)N([C@@H](C)CO)C[C@H]1C,inactive: 2.65%
8,CC(C)C[C@@H](CN1CCC[C@@H]1CN1C(=O)C(=O)NC[C@@H]1Cc1ccccc1)N1C[C@H](Cc2ccc(O)cc2)N(CCc2ccccc2)C(=O)C1=O,inactive: -7.18%
9,COCC(=O)N1CC(=O)N2[C@@H](CO)[C@@H](c3ccc(C#Cc4cccc(OC)c4)cc3)[C@@H]2C1,inactive: -2.19%
10,O=C(c1sccc1Cl)N1CCN(Cc2ccc3c(c2)OCO3)CC1,inconclusive: 42.8%
11,O=C(NNc1ncnc2c1cnn2-c1cccc(Cl)c1)c1ccco1,inconclusive: 28.9%
12,CN(Cc1nc2ccccc2c(=O)[nH]1)C(=O)c1cccc(S(=O)(=O)N2CCc3ccccc32)c1,active: 43.7%
13,NS(=O)(=O)c1ccc(CCNc2nn3c(-c4ccc(F)c(Cl)c4)cnc3s2)cc1,inconclusive: 26.7%
14,CCN1CCc2nc(N)oc2CC1,inconclusive: 63.3%
15,COc1cc(C(=S)N2CCOCC2)ccc1OS(=O)(=O)c1ccc(C)cc1,inconclusive: 20.5%
16,O=C1CC(N2CCN(c3ccccc3)CC2)C(=O)N1c1cccc(Br)c1 (stereo unspecified),inactive: 2.87%
17,Cn1nc(C(F)(F)F)c(-c2ccc(Br)cc2)c1NC(=O)c1ccco1,inactive: -0.439%
18,Cc1noc(C)c1NC(=O)Nc1cccc2c1O[C@H](CN(C)CC1CC1)[C@H](C)CN([C@H](C)CO)C2=O,inactive: -3.17%
19,Cc1ccnc(NC(=O)CNC(=O)c2ccccc2Br)c1,inconclusive: 30.9%
20,C=CCNc1ncnc2c1ncn2[C@H]1CN(Cc2ccco2)C[C@@H](CO)O1,inconclusive: 72%
21,O=C(CSC1=NCCS1)Nc1cccc(F)c1,inconclusive: 22.4%
22,COc1ccc2c3c([nH]c2c1)[C@H](CO)N(C(=O)c1ccncc1)CC31CCN(C(=O)c2ccncc2)CC1,inconclusive: 22.4%
23,CN1C(=O)c2cc(NC(=O)C3CC3)ccc2OC[C@@H]2O[C@@H](CC(=O)NCc3cccc(F)c3)CC[C@H]21,inactive: -2.36%
24,O=C(C1CC1)N1CC2(C1)[C@H](c1ccccc1)[C@@H](CO)N2Cc1ccccc1F,inactive: -0.651%

# 4 structures already listed, ordered by count of non-hydrogen atoms, rising:
row,Structure (SMILES),CPE inhibition
14,CCN1CCc2nc(N)oc2CC1,inconclusive: 63.3%
10,O=C(c1sccc1Cl)N1CCN(Cc2ccc3c(c2)OCO3)CC1,inconclusive: 42.8%
3,COc1ccccc1CCNC(=O)C(=O)Nc1cc2c3c(c1)CC(=O)N3CCC2,inconclusive: 55%
18,Cc1noc(C)c1NC(=O)Nc1cccc2c1O[C@H](CN(C)CC1CC1)[C@H](C)CN([C@H](C)CO)C2=O,inactive: -3.17%

# — PubChem BioAssay AID651640 (Broad Institute, 2012)
